Patent US20190307899

Chains of the proteins cited; added tags and fusions are not shown. Residues count along the entry.
UniProt Q9ET78, 1-565: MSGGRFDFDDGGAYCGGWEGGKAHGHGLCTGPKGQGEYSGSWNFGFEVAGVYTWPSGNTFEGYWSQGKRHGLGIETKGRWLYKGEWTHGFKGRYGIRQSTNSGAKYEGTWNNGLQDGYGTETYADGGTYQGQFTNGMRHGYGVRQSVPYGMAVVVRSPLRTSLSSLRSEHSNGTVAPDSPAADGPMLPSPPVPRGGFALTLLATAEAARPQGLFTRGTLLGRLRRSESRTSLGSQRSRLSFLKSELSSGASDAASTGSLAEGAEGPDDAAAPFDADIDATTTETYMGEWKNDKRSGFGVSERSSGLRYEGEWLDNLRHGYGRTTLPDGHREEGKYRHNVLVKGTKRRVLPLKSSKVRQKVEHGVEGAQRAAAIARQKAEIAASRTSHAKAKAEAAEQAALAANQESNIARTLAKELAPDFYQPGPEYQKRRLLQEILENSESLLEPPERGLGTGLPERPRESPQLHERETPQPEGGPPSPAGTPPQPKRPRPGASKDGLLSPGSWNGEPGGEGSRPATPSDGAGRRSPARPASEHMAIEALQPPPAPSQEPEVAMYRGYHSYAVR
UniProt Q9ET78, 331-405: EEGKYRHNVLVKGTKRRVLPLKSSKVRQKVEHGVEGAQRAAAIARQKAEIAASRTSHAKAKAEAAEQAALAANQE

Legend:
[1] = target: GST-JP2NT (junctophilin-2 residues 1-565) (Mus musculus) (UniProt Q9ET78); assay: EMSA; details: purified recombinant protein; protein details: GST
[2] = target: GST-JP2(331-405) DNA-binding domain peptide (Mus musculus) (UniProt Q9ET78); assay: EMSA; details: purified recombinant protein; protein details: GST

Row | Sequence | binding result [1] | binding result [2]
1 | GGCCTTTCCTTCTCCTCTATAAATACCAGCTCTGGTATTTCA (double strand) [desmin MRE WT] | binds | binds
2 | GGGATCTGAGTCGCAGTATAAAAGAAGCTTTTCGGGCGTT (double strand) [cMyc promoter TATA box WT (TATAAA)] | binds | –

Construct, isoform or probe ends are uncertain for at least one entry.
